The record followed here is patent publication US20170369545A1.

Results are given in words; binding and its absence hold for the method and conditions named. Some results given as binding are weak or reduced against the parent protein; the word gives no strength. Where a sequence is shown, tags or fusion partners need not be part of it.

Assay [1] has as its target recombinant MET-IgG1 chimera (UniProt P08581). Kind of assay: ALPHAScreen cross-titration: K1K1 0-300 nM against recombinant MET-Fc 0-10 nM, streptavidin coated donor beads and protein A-conjugated acceptor beads.
Assay [2] shares this target. Description: cross titration ALPHAScreen, K1K1 0-300 nM against MET-Fc 0-10 nM, streptavidin donor beads and protein A acceptor beads.

B1: HGF/SF-K1K1 (C-terminally tagged K1K1 protein, 6xHis tag) (designed binder)
chain: MAIRNCIIGKGRSYKGTVSITKSGIKCQPWSSMIPHEHSFLPSSYRGKDLQENYCRNPRGEEGGPWCFTSNPEVRYEVCDIPQCSEVECIIGKGRSYKGTVSITKSGIKCQPWSSMIPHEHSFLPSSYRGKDLQENYCRNPRGEEGGPWCFTSNPEVRYEVCDIPQCSEVEHHHHHH
With B1, the binding entry in assay [1] and in assay [2] was “binds” throughout.
